Test results published in PubChem BioAssay AID248 (DTP/NCI, 2004).
The list shows only some results of the screen, not a fair sample: it is rich in T/C values a quarter to a half above the control, in often repeated tests (any T/C) and in doses without a T/C. Other doses and runs of a compound stand elsewhere. T/C: endpoint of the treated group in % of that of the vehicle group. Some doses have a count of surviving animals in place of a T/C: the source holds a T/C of zero for them, seemingly a mark for toxic or unscored doses. Some survivor counts are full or nearly so, which does not show that the dose was tolerated: the source hardly ever lists a survival T/C far under the control, and the zero likely stands for such cases as well. Counts of survivors are from the toxicity check (mostly the fifth day) where no day follows; animals may have died later. Schedule codes are those of the source, taken here to give the interval after Q, in days (D) or hours (H), and the number of doses after X. For survival time, the PubChem record calls one and a half times the control and up active, and a quarter to a half above the control has no call in these data; cut-offs in other NCI protocols can differ.

Tested on: L1210 leukemia ip in BDF1 mice, survival T/C
Assay: NCI In Vivo Anticancer Drug Screen. Data for tumor model L1210 Leukemia (intraperitoneal) in B6D2F1 (BDF1) mice
Settings: T/C endpoint: mean survival time, higher T/C = longer survival

## Cc1ccc2c(c1)c(C)cc(=O)n2C
dose: 400.0 mg/kg/injection, schedule: Q01DX001 (ip), vehicle: other
  survivor count: 2 of 4

## c1ccc(OCC2(N3CCCCC3)CCCC2)cc1
dose: 200.0 mg/kg/injection, schedule: Q04DX002 (ip), vehicle: saline with Tween-80
  survivor count: 1 of 3
dose: 400.0 mg/kg/injection, schedule: Q04DX002 (ip), vehicle: saline with Tween-80
  survivor count: 2 of 3

## CC1(c2cccs2)C(=O)N(Cl)C(=O)N1Cl (configuration not stated)
dose: 200.0 mg/kg/injection, schedule: Q04DX003 (ip), vehicle: saline
  survivor count: 3 of 6
dose: 400.0 mg/kg/injection, schedule: Q04DX003 (ip), vehicle: saline
  survivor count: 0 of 6

## CCCCC(=O)N1CCC(C)CC1
dose: 400.0 mg/kg/injection, schedule: Q04DX002 (ip), vehicle: saline
  survivor count: 2 of 3

## Clc1ccc(SSc2ccc(Cl)cc2)cc1
dose: 100.0 mg/kg/injection, schedule: Q01DX009 (ip), vehicle: gum acacia
  survivor count: 5 of 6
dose: 200.0 mg/kg/injection, schedule: Q01DX009 (ip), vehicle: gum acacia
  survivor count: 5 of 6
dose: 400.0 mg/kg/injection, schedule: Q01DX009 (ip), vehicle: gum acacia
  survivor count: 0 of 6

## COc1ccc(C(c2ccc(Cl)cc2)N2CCNCC2)cc1 (configuration not stated)
dose: 200.0 mg/kg/injection, schedule: Q04DX003 (ip), vehicle: saline with Tween-80
  survivor count: 3 of 6
dose: 400.0 mg/kg/injection, schedule: Q04DX003 (ip), vehicle: saline with Tween-80
  survivor count: 3 of 6

## Cc1cc(=O)oc2c(CN3CCCCC3)c(O)ccc12
dose: 40.0 mg/kg/injection, schedule: Q01DX001 (ip), vehicle: carboxymethylcellulose (CMC)
  survivor count: 2 of 4
dose: 80.0 mg/kg/injection, schedule: Q01DX001 (ip), vehicle: carboxymethylcellulose (CMC)
  survivor count: 0 of 4
dose: 100.0 mg/kg/injection, schedule: Q01DX001 (ip), vehicle: carboxymethylcellulose (CMC)
  survivor count: 0 of 4
dose: 200.0 mg/kg/injection, schedule: Q01DX001 (ip), vehicle: carboxymethylcellulose (CMC)
  survivor count: 0 of 4
dose: 400.0 mg/kg/injection, schedule: Q01DX001 (ip), vehicle: carboxymethylcellulose (CMC)
  survivor count: 0 of 4

## COc1ccc(Cl)cc1C/C=N/NC(=O)C[N+](C)(C)C
dose: 150.0 mg/kg/injection, schedule: Q01DX001 (ip), vehicle: saline
  survivor count: 0 of 6
dose: 300.0 mg/kg/injection, schedule: Q01DX001 (ip), vehicle: saline
  survivor count: 0 of 6

## Nc1ncc(CNc2ccc(C(=O)NC(CCC(=O)O)C(=O)O)cc2)c(N)n1 (configuration not stated)
dose: 100.0 mg/kg/injection, schedule: Q01DX009 (ip), vehicle: carboxymethylcellulose (CMC)
  T/C: 129 % of control
dose: 200.0 mg/kg/injection, schedule: Q01DX009 (ip), vehicle: carboxymethylcellulose (CMC)
  T/C: 125 % of control
dose: 400.0 mg/kg/injection, schedule: Q01DX009 (ip), vehicle: carboxymethylcellulose (CMC)
  T/C: 144 % of control
dose: 600.0 mg/kg/injection, schedule: Q01DX009 (ip), vehicle: carboxymethylcellulose (CMC)
  T/C: 139 % of control
dose: 900.0 mg/kg/injection, schedule: Q01DX009 (ip), vehicle: carboxymethylcellulose (CMC)
  T/C: 133 % of control

## Cc1cc2c3ccc(C)[n+](C)c3ccc2n1C
dose: 10.0 mg/kg/injection, schedule: Q01DX009 (ip), vehicle: saline
  survivor count: 0 of 6
dose: 19.0 mg/kg/injection, schedule: Q01DX001 (ip), vehicle: saline
  survivor count: 1 of 6
dose: 38.0 mg/kg/injection, schedule: Q01DX001 (ip), vehicle: saline
  survivor count: 0 of 6
dose: 40.0 mg/kg/injection, schedule: Q04DX003 (ip), vehicle: saline
  survivor count: 0 of 6
